PubChem BioAssay AID1224827 – NIAID, 2016
Purpose: 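Retest primary hits on a TNF reporter with six siRNAs per gene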 (follow-up of hits). System: RAW264.7 G9 mouse macrophage reporter clone. Reagents: single siRNA against mouse genes, 100 nM siRNA. Duration: siRNA for 2 days, then LPS about 16 h. Conditions: bacterial lipopolysaccharide (LPS), 10 ng/ml, cells fixed after overnight (about 16 h) stimulation. Detection: 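TNF promoter reporter red fluorescence in nuclei, background subtracted, normalised per plate and to non-targeting control siRNA, as z-scores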. Reading the numbers: TNF reporter z-score, mean: higher = stronger Tnf promoter reporter signal. Call rule: 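An siRNA is called active when its mean z-score over replicates is at least +2 or at most -2; control wells get no call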.
In all, the deposit lists about 3,800 reagents; shown is a part drawn at random. Of all reagents, about 2,200 (57%) are marked active. 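Active means a strong reporter change in either direction; calls are per siRNA, not per gene; qiagen siRNAs gave weaker effects.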 The numbers tell different reagents against one gene apart. Further read-outs or replicates are left out here.

Shbg #1
- TNF reporter z-score, mean: -0.797
- outcome: inactive

Shbg #2
- TNF reporter z-score, mean: -1.71
- outcome: inactive

Shbg #3
- TNF reporter z-score, mean: -2.56
- outcome: active

Shbg #4
- TNF reporter z-score, mean: 1.01
- outcome: inactive

Shbg #5
- TNF reporter z-score, mean: 0.656
- outcome: inactive

Shbg #6
- TNF reporter z-score, mean: -2.95
- outcome: active

Wls #1
- TNF reporter z-score, mean: -1.96
- outcome: inactive

Wls #2
- TNF reporter z-score, mean: -3.44
- outcome: active

Wls #3
- TNF reporter z-score, mean: -4.31
- outcome: active

Wls #4
- TNF reporter z-score, mean: 2.48
- outcome: active

Wls #5
- TNF reporter z-score, mean: 1.39
- outcome: inactive

Wls #6
- TNF reporter z-score, mean: -1.78
- outcome: inactive

Was #1
- TNF reporter z-score, mean: 4.39
- outcome: active

Was #2
- TNF reporter z-score, mean: -3.17
- outcome: active

Was #3
- TNF reporter z-score, mean: -3.23
- outcome: active

Was #4
- TNF reporter z-score, mean: -1.12
- outcome: inactive

Was #5
- TNF reporter z-score, mean: -1.77
- outcome: inactive

Was #6
- TNF reporter z-score, mean: -1.62
- outcome: inactive

Rpsa #1
- TNF reporter z-score, mean: 0.342
- outcome: inactive

Rpsa #2
- TNF reporter z-score, mean: -1.88
- outcome: inactive

Rpsa #3
- TNF reporter z-score, mean: -3.26
- outcome: active

Rpsa #4
- TNF reporter z-score, mean: 3.66
- outcome: active

Rpsa #5
- TNF reporter z-score, mean: -0.151
- outcome: inactive

Rpsa #6
- TNF reporter z-score, mean: -3.54
- outcome: active

P2rx5 #1
- TNF reporter z-score, mean: -1.51
- outcome: inactive

P2rx5 #2
- TNF reporter z-score, mean: -3.19
- outcome: active

P2rx5 #3
- TNF reporter z-score, mean: -4.31
- outcome: active

P2rx5 #4
- TNF reporter z-score, mean: 1.67
- outcome: inactive

P2rx5 #5
- TNF reporter z-score, mean: -0.29
- outcome: inactive

P2rx5 #6
- TNF reporter z-score, mean: -1.8
- outcome: inactive

Bpifa1 #1
- TNF reporter z-score, mean: -2.93
- outcome: active

Bpifa1 #2
- TNF reporter z-score, mean: -2.83
- outcome: active

Bpifa1 #3
- TNF reporter z-score, mean: -3.19
- outcome: active

Bpifa1 #4
- TNF reporter z-score, mean: 0.482
- outcome: inactive

Bpifa1 #5
- TNF reporter z-score, mean: -0.446
- outcome: inactive

Bpifa1 #6
- TNF reporter z-score, mean: -3.12
- outcome: active

6 consecutive entries already listed, quoted:
Shbg #5
- TNF reporter z-score, mean: 0.656
- outcome: inactive

Shbg #6
- TNF reporter z-score, mean: -2.95
- outcome: active

Wls #1
- TNF reporter z-score, mean: -1.96
- outcome: inactive

Wls #2
- TNF reporter z-score, mean: -3.44
- outcome: active

Wls #3
- TNF reporter z-score, mean: -4.31
- outcome: active

Wls #4
- TNF reporter z-score, mean: 2.48
- outcome: active
